Publication PMC12921443
These are yes or no findings as the source states them, for the method shown. Some binding calls cover weakened binding; strength is not graded here.

B1: MYB93 full-length (Arabidopsis MYB93 transcription factor) (protein, UniProt Q9S9Z2 1-365)
chain: MGRSPCCDENGLKKGPWTPEEDQKLIDYIHKHGHGSWRALPKLADLNRCGKSCRLRWTNYLRPDIKRGKFSAEEEQTILHLHSILGNKWSAIATHLQGRTDNEIKNFWNTHLKKKLIQMGIDPVTHQPRTDLFASLPQLIALANLKDLIEQTSQFSSMQGEAAQLANLQYLQRMFNSSASLTNNNGNNFSPSSILDIDQHHAMNLLNSMVSWNKDQNPAFDPVLELEANDQNQDLFPLGFIIDQPTQPLQQQKYHLNNSPSELPSQGDPLLDHVPFSLQTPLNSEDHFIDNLVKHPTDHEHEHDDNPSSWVLPSLIDNNPKTVTSSLPHNNPADASSSSSYGGCEAASFYWPDICFDESLMNVIS
B2: MYB93 C-terminal region, amino acids 115-365 (MYB93-C345) (domain or fragment, UniProt Q9S9Z2 115-365)
chain: KLIQMGIDPVTHQPRTDLFASLPQLIALANLKDLIEQTSQFSSMQGEAAQLANLQYLQRMFNSSASLTNNNGNNFSPSSILDIDQHHAMNLLNSMVSWNKDQNPAFDPVLELEANDQNQDLFPLGFIIDQPTQPLQQQKYHLNNSPSELPSQGDPLLDHVPFSLQTPLNSEDHFIDNLVKHPTDHEHEHDDNPSSWVLPSLIDNNPKTVTSSLPHNNPADASSSSSYGGCEAASFYWPDICFDESLMNVIS
B3: MYB93 C-terminal region, amino acids 156-365 (MYB93-C468) (domain or fragment, UniProt Q9S9Z2 156-365)
chain: SSMQGEAAQLANLQYLQRMFNSSASLTNNNGNNFSPSSILDIDQHHAMNLLNSMVSWNKDQNPAFDPVLELEANDQNQDLFPLGFIIDQPTQPLQQQKYHLNNSPSELPSQGDPLLDHVPFSLQTPLNSEDHFIDNLVKHPTDHEHEHDDNPSSWVLPSLIDNNPKTVTSSLPHNNPADASSSSSYGGCEAASFYWPDICFDESLMNVIS

target: T1, MITOGEN … PROTEIN KINASE 3 (MPK3), full-length (Arabidopsis) (UniProt Q39023); test: two-hybrid; MYB93 constructs in pGADT7, MPK3 in pGBKT7; S. cerevisiae AH109; growth on SD -AHLW agar plates, 2-3 days at 30 °C; empty pGBKT7 as control
T1 sequence: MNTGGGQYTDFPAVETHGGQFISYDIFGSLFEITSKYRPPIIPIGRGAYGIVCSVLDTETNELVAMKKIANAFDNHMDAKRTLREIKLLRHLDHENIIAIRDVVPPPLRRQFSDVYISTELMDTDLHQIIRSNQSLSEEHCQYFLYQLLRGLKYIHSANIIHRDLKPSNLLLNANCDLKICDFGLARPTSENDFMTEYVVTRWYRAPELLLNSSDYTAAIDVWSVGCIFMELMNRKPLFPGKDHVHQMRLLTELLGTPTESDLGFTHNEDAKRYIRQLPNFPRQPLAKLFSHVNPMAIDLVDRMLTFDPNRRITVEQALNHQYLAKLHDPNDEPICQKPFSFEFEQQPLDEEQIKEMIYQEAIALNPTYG

| Binder | binding |
| --- | --- |
| B1 | binds |
| B2 | no binding |
| B3 | no binding |
